## Results from one PubChem assay

Data taken from PubChem BioAssay AID1159506, deposited by NCATS (2015).

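Luminescence from an EWS-FLI1 target-promoter (NR0B1) reporter, set against a CMV-promoter reporter, two days after silencing single genes in TC32 Ewing sarcoma cells.
Each siRNA was applied at 20 nM.
A z-score of the log NR0B1-over-CMV signal, less the median of siRNAs with the same seed; more negative means a stronger specific loss of the NR0B1 reporter.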

The strongest results of the screen are mostly left out here.
Sequences are the guide (antisense) strand, without overhang.

Result for UCAAAGGCGACAAUGUGGG against FAM234A was seed-corrected z-score -0.05665.
Result for UAAGAGGUGACUGAAGGGA against PSG11 was seed-corrected z-score -1.222.
Result for UGAGGAAUCUGAGUCCUGG against CPEB1 was seed-corrected z-score 1.497.
Result for UCAGUGGUGGUUUCGUAGC against CRYGC was seed-corrected z-score -0.9153.
Result for UGACUUUAUAGAUGGAUCC against BANP was seed-corrected z-score -0.8271.
Result for AACGUAUCAAGCAUAUUGG against UBL7 was seed-corrected z-score -0.8048.
Result for AUGGAUAACACUAAUUCCG against CEBPG was seed-corrected z-score -0.6413.
Result for UUAGUUAUCUGUUUCCGAG against ZNF860 was seed-corrected z-score -0.1726.
Result for UCCUCGUUCAGGAUCACUG against DLG2 was seed-corrected z-score -1.783.
Result for UUCUUUGACUCCCAAAUGC against NT5M was seed-corrected z-score 0.4704.
Result for UCACAAGCCGACCCUGACU against HMGN2 was seed-corrected z-score -0.0779.
Result for AUAAAUCCAACUAUUGCAG against SPCS1 was seed-corrected z-score 0.5373.
Result for UAUGUAGAAAUCAGCCUCC against PRR18 was seed-corrected z-score -0.63.
Result for UCACUGUUUGUGGUAAGCC against MUC15 was seed-corrected z-score 0.1621.
Result for UCUGAUUCUACCGUCUCCC against ATP13A4 was seed-corrected z-score -0.2626.
Result for UUGACUCUAUCAAAGUUGC against TMED5 was seed-corrected z-score -0.7431.
Result for UUACACUUAACUUGGACCU against RPL32P19 was seed-corrected z-score 0.2419.
Result for ACUGGUGACACCAUAUGGC against LYNX1 was seed-corrected z-score 0.5175.
Result for UAGCCGGUCAUAGCAGUCC against RGS11 was seed-corrected z-score 0.09431.
Result for UUACUGAAGGGAGUUGUUC against C1orf122 was seed-corrected z-score 0.06675.
Result for UUAGCUCAAACCAUUCCCG against AREL1 was seed-corrected z-score 0.5383.
Result for AGUGAAUCCAGGAUCGAUC against IGFBP4 was seed-corrected z-score 0.03168.
Result for UUUAUGUGUAGUACAGUUU against ZNF735 was seed-corrected z-score 0.8185.
Result for UUCUUGAGAUCGUUCAACU against TRIM31 was seed-corrected z-score -0.0767.
Result for UGACGUAGCAUGGUCAAAG against P4HA3 was seed-corrected z-score -0.09106.
Result for AACCAUACCAAAUACGCUG against SLC5A8 was seed-corrected z-score 0.2501.
Result for UUUUCAAUUAGUUCCACUC against TRIM61 was seed-corrected z-score -0.08631.
Result for AGACCACUACAUAAGAUGC against TMEM159 was seed-corrected z-score 0.1045.
Result for UCCUCUUCCAUCGGUAGCU against CLK3 was seed-corrected z-score 0.2236.
Result for UUUCGGCAAAACAAGGGUG against STAP1 was seed-corrected z-score -0.1587.
Result for UUCCCAACAAUCCACGAGC against MFSD8 was seed-corrected z-score -0.1726.
Result for AAUGGAACCAAGAAGGGAG against TTYH3 was seed-corrected z-score 0.6653.
Result for UCUGGAGCUUGAGCAGUGU against DKK4 was seed-corrected z-score 0.5725.
Result for UUCACGGCAACAGUAGAGG against AHCYL2 was seed-corrected z-score -0.7885.
Result for AUAGGAUUGAAAGAGCUAC against MED19 was seed-corrected z-score 0.2517.
Result for UGAUCUUCGAGGUUCAACC against PARL was seed-corrected z-score -0.6616.
Result for UGAAUGAUCCACGAAGGCC against ZNF699 was seed-corrected z-score 0.4168.
Result for UCGUUUGUAAUAUGCAAUC against GIN1 was seed-corrected z-score -0.602.
Result for UAUCCCACCACUAGUCUCC against CCL16 was seed-corrected z-score -0.3673.
Result for UUCUGUAUCAUUUUGAGGC against CCDC172 was seed-corrected z-score -0.8068.
Result for UUCUAUGACACCAUGGUAG against POGLUT1 was seed-corrected z-score -0.8808.
Result for UGAUCUAACACGGAAGCUC against ZNF221 was seed-corrected z-score 0.01742.
Result for UUGCUGAAUACUUUGAGGC against STARD13 was seed-corrected z-score -0.5327.
Result for AAACCAACCCAUAAGGUUC against CHRDL1 was seed-corrected z-score -0.0395.
Result for UAUUUGAUACGCAACACCU against SPAG11B was seed-corrected z-score 1.249.
Result for AAGAUGAUAGAAAUGGUCC against GNAL was seed-corrected z-score 1.815.

Repeated from the top, 6 entries:

- UCAAAGGCGACAAUGUGGG against FAM234A : seed-corrected z-score -0.05665
- UAAGAGGUGACUGAAGGGA against PSG11 : seed-corrected z-score -1.222
- UGAGGAAUCUGAGUCCUGG against CPEB1 : seed-corrected z-score 1.497
- UCAGUGGUGGUUUCGUAGC against CRYGC : seed-corrected z-score -0.9153
- UGACUUUAUAGAUGGAUCC against BANP : seed-corrected z-score -0.8271
- AACGUAUCAAGCAUAUUGG against UBL7 : seed-corrected z-score -0.8048